# According to US20100008928A1 (Takeda / Millennium, published 2010):
# No constants are given. Whether binding was seen depends on the method and setting. Some results given as binding are weak or reduced against the parent protein; the word gives no strength.
# Target: Nectin-2ED-hFc protein (human)
# Assay: ELISA, immobilized nectin-2-ED-Fc
binder,measurement,value
"Nec1-554-1 SP3 (antibody, V domains shown, also called antibody fraction (SP3)) VH: EVQLVESGGGLVKPGGSLRLSCAASGFTFSSYNMNWVRQAPGKGLEWVSSISSSSSYIYYADSVKGRFTISRDNAKNSLYLQMNSLRAEDTAVYYCARDYYGSGTYYLFDYWGQGTLVTVSS VL: EIVLTQSPDFQSVTPKEKVTITCRASQSIGSSLHWYQQKPDQSPKLLIKYASQSFSGVPSRFSGSGSGTDFTLTINSLEAEDAAAYYCHQSRSLPITFGQGTRLEIK",binding,binds
